This assay concerns the target CHD4 (mouse (endogenous in choroid plexus)) (UniProt Q6PDQ2). The assay is described as follows: co-IP.

The chains behind the UniProt entries cited, without tags or fusion partners.
UniProt Q6PDQ2: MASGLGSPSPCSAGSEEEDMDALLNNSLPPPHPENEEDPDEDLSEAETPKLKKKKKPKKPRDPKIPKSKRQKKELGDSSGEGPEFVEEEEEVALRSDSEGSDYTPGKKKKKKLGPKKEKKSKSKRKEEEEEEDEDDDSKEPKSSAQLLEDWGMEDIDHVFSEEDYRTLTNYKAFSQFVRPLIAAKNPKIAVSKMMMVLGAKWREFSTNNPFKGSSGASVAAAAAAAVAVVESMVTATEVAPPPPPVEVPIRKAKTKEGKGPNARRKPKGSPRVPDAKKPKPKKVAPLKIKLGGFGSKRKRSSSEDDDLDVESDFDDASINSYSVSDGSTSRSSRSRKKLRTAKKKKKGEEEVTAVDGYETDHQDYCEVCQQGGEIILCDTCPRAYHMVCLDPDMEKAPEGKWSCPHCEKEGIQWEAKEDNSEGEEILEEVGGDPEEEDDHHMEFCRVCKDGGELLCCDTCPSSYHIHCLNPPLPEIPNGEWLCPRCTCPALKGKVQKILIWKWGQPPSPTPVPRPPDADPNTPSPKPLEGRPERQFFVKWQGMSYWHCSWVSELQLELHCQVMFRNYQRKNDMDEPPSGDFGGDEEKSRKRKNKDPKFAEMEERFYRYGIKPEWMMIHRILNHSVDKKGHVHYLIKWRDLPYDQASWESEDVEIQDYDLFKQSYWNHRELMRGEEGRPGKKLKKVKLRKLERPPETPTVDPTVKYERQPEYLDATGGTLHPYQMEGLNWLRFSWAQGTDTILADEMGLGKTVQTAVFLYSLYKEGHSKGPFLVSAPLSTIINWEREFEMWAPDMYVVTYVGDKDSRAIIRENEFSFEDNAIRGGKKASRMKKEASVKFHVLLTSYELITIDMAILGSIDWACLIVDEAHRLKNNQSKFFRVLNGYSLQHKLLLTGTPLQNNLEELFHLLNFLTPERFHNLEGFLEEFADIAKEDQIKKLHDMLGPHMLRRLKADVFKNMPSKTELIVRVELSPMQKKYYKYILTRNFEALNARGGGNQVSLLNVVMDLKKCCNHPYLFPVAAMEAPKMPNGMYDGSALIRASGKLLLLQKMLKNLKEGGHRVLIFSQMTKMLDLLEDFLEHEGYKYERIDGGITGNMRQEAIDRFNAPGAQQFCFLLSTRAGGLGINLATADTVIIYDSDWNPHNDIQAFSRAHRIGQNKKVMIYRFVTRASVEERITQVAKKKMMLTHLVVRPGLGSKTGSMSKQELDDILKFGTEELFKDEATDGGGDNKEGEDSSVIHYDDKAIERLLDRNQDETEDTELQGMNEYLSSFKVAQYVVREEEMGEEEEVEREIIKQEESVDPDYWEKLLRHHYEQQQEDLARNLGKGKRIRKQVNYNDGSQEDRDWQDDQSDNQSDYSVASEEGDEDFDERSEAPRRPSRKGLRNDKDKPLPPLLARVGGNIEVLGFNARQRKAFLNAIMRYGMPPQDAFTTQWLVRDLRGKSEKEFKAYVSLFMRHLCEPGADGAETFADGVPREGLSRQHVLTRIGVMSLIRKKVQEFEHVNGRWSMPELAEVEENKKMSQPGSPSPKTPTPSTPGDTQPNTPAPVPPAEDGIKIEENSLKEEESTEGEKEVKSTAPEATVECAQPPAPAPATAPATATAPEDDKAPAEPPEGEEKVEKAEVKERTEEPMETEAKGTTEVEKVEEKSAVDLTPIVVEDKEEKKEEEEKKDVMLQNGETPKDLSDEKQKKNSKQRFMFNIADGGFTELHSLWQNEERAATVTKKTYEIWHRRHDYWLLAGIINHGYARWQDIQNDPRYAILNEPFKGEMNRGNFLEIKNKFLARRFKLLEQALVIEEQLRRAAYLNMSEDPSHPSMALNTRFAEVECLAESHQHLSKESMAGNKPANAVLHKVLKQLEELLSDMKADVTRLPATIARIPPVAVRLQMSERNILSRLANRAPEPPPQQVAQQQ
UniProt O09106: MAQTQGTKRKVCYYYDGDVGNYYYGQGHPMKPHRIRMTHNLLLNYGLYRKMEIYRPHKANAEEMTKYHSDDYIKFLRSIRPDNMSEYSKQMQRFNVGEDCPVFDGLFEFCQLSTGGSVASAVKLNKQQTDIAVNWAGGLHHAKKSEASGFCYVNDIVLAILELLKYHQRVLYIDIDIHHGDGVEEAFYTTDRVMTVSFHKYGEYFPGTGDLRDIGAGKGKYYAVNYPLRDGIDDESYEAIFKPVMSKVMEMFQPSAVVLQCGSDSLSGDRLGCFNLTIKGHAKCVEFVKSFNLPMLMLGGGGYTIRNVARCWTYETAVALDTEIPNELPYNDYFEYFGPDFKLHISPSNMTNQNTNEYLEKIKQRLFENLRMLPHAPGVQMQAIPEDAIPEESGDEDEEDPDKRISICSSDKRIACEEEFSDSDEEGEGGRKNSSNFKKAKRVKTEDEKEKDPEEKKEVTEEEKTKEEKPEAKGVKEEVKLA
UniProt P70288: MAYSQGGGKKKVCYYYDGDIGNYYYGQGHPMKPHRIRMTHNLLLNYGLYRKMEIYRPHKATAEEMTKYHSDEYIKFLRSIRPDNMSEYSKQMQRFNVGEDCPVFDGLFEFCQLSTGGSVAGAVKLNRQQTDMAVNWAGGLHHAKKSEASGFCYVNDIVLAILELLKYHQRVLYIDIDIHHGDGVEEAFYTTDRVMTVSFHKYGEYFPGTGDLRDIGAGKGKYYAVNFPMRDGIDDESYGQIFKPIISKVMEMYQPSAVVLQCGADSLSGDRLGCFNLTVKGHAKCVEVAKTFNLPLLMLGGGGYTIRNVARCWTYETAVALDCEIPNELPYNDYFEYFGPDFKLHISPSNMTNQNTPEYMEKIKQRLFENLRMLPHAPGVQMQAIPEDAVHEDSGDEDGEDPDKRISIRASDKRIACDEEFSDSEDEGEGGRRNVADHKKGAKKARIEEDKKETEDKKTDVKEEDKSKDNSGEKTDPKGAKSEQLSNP

These are yes or no findings as the source states them, for the method shown. In cells and extracts the contact can be indirect. Some binding calls cover weakened binding; strength is not graded here.

For the substance HDAC1 (from UniProt O09106 1-482), the binding result is “binds”.
With HDAC2 (from UniProt P70288 1-488), the binding entry is “binds”.

(Values after article doi:10.1101/2020.08.03.234260.)
